Assay results from article PMC7948425.
No constants are given. Whether binding was seen depends on the method and setting. In cells and extracts the contact can be indirect. Here binding means that the protein was enriched with, or labelled near, the bait; the list need not be complete. No binding means not detected with the bait. Tags and fused reporters may be left off the sequences shown.

T1: FLAG-streptavidin-binding peptide (FSBP) dual epitope-tagged USP13, from the gene-edited endogenous allele (human (endogenous in HCT116)), Q92995
T1 chain: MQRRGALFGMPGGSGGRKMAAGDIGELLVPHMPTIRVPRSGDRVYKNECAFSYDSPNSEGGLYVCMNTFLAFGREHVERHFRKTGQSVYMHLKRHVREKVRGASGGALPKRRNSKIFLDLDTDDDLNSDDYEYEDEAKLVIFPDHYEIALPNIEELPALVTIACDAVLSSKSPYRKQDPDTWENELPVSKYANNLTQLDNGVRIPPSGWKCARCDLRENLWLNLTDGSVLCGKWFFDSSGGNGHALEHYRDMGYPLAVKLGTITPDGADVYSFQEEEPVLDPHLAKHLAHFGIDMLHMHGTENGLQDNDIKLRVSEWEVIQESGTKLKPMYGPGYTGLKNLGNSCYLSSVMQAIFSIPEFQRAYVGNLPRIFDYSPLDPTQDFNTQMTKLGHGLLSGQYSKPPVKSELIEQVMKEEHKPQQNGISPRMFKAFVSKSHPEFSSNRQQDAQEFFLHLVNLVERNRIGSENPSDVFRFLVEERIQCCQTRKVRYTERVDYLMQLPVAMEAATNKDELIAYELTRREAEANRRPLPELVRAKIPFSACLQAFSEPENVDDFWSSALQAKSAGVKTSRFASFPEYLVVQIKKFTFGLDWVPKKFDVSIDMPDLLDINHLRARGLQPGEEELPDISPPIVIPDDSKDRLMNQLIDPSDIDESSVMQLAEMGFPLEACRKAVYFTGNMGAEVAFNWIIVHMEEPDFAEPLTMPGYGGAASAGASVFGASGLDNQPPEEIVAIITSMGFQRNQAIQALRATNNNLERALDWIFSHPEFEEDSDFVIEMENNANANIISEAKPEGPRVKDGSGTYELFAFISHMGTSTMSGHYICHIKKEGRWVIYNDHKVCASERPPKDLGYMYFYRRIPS

B1: IL-1R8, Q6IA17 1-410 (receptor)
chain: MPGVCDRAPDFLSPSEDQVLRPALGSSVALNCTAWVVSGPHCSLPSVQWLKDGLPLGIGGHYSLHEYSWVKANLSEVLVSSVLGVNVTSTEVYGAFTCSIQNISFSSFTLQRAGPTSHVAAVLASLLVLLALLLAALLYVKCRLNVLLWYQDAYGEVEINDGKLYDAYVSYSDCPEDRKFVNFILKPQLERRRGYKLFLDDRDLLPRAEPSADLLVNLSRCRRLIVVLSDAFLSRAWCSHSFREGLCRLLELTRRPIFITFEGQRRDPAHPALRLLRQHRHLVTLLLWRPGSVTPSSDFWKEVQLALPRKVQYRPVEGDPQTQLQDDKDPMLILRGRVPEGRALDSEVDPDPEGDLGVRGPVFGEPSAPPHTSGVSLGESRSSEVDVSDLGSRNYSARTDFYCLVSKDDM
B2: GP78, Q9UKV5 1-643 (protein)
chain: MPLLFLERFPWPSLRTYTGLSGLALLGTIISAYRALSQPEAGPGEPDQLTASLQPEPPAPARPSAGGPRARDVAQYLLSDSLFVWVLVNTACCVLMLVAKLIQCIVFGPLRVSERQHLKDKFWNFIFYKFIFIFGVLNVQTVEEVVMWCLWFAGLVFLHLMVQLCKDRFEYLSFSPTTPMSSHGRVLSLLVAMLLSCCGLAAVCSITGYTHGMHTLAFMAAESLLVTVRTAHVILRYVIHLWDLNHEGTWEGKGTYVYYTDFVMELTLLSLDLMHHIHMLLFGNIWLSMASLVIFMQLRYLFHEVQRRIRRHKNYLRVVGNMEARFAVATPEELAVNNDDCAICWDSMQAARKLPCGHLFHNSCLRSWLEQDTSCPTCRMSLNIADNNRVREEHQGENLDENLVPVAAAEGRPRLNQHNHFFHFDGSRIASWLPSFSVEVMHTTNILGITQASNSQLNAMAHQIQEMFPQVPYHLVLQDLQLTRSVEITTDNILEGRIQVPFPTQRSDSIRPALNSPVERPSSDQEEGETSAQTERVPLDLSPRLEETLDFGEVEVEPSEVEDFEARGSRFSKSADERQRMLVQRKDELLQQARKRFLNKSSEDDAASESFLPSEGASSDPVTLRRRMLAAAAERRLQKQQTS

Biological target: T1, FLAG-streptavidin-binding peptide …
Assay: affinity purification with mass spectrometry; dual-affinity purification (FLAG M2 beads, FLAG peptide elution, then streptavidin resin, biotin elution; TBS 150 mM NaCl) of FSBP-USP13 from 60 mg HCT116 nuclear extract, parental cells as control, GeLC-MS/MS
Conditions: remark: other sources report otherwise

Binder	binding
B1	no binding
B2	no binding
